Test results from patent publication US20090023727A1, “PHTHALAZINONE DERIVATIVES” (priority 2007, published 2009).
Some of these results come from one statement about several compounds together.

Tested on: HeLa cells
Assay: Potentiation Factor (PF50) of MMS growth inhibition, SRB assay
Format: cell-based
Settings: ratio IC50 control cell growth / IC50 cell growth + PARP inhibitor, with MMS, compound at 30 nM

`CC1CCCCN1C(=O)C1CCN(C(=O)c2cc(Cc3n[nH]c(=O)c4c3CCCC4)ccc2F)CC1` (stereo not shown) [17f, 4-[[4-fluoro-3-[4-(2-methylpiperidine-1-carbonyl)piperidine-1-carbonyl]phenyl]methyl]-5,6,7,8-tetrahydro-2H-phthalazin-1-one] was tested, and the “mean PF50 at 30 nM” value was “at least 2”.
